The values are deposited in ChEMBL (CHEMBL3988442, “University of Dundee, Small-Polar-MMV Screening Library” (2021)).

A: 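Whole-cell assay for inhibitors of Mycobacterium tuberculosis growth, labelled Cornell in the record; the read-out is not stated. The concentration is filed as 10 mM, unlikely as a test dose, so the dose is not known. Higher means stronger inhibition (inferred from two other growth screens of the library). About 53,000 compounds were tested under these conditions; 1.7% (about 900) showed 50% or more at least once.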
B: 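Assay on Mycobacterium tuberculosis, filed only as a heat shock assay from Cornell; the read-out is not stated. The concentration is filed as 10 mM, unlikely as a test dose, so the dose is not known. Higher reads as stronger inhibition (inferred: compounds with an IC50 in retests scored well above the rest). Of about 69,000 compounds tested this way, about 930 (1.4%) reached 50% or more in at least one test.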

The filed quantity is “Percent Effect” (%). The controls that fix the scale are not given in the record; negative values are as filed. This is an unselected part of the compounds tested.

- CCN(CC)Cc1nc2c(o1)CN(C(=O)c1ccc3ncccc3c1)C2 | A: 29.31%; B: -13.75%
- Cc1cc(C)n(-c2ccc3nnc(C)n3n2)n1 | A: -17.21%; B: -25.33%
- [H][C@]12CC[C@]([H])(CC(=O)N(C)C1)N2C(=O)c1ccc(-c2ccccc2)[nH]c1=O | B: -2.361%
- Cn1ccnc1CN1CCC2(CC1)CC(NC(=O)c1ccccn1)CO2.O=C(O)C(F)(F)F (stereo unspecified) | A: -13.37%; B: -3.363%
- O=C(CN1CCC(c2nnc(C(F)(F)F)o2)CC1)Nc1cccnc1 | A: 16.04%; B: -26.84%
- Cc1oc2c(c1C(=O)N1CC[C@H](O)[C@]3(CCCO3)C1)CCCC2 | A: 4.414%; B: 10.57%
- O=C(O)C(F)(F)F.O=C(O)C(F)(F)F.O=C(O)C(F)(F)F.[H][C@@]12CO[C@@H](CNc3ncccn3)[C@]1([H])CCN(Cc1cccc(C)n1)C2 | A: -1.393%; B: -21.04%
- CN(C)C(=O)CN1CCOCC2(CCN(CC3CCOC3)CC2)C1.O=C(O)C(F)(F)F.O=C(O)C(F)(F)F (stereo unspecified) | A: -9.295%; B: -49.6%
- O=C(C(NCc1cccc(F)c1F)c1ccccc1)N1CCOCC1 (stereo unspecified) | A: 2.759%; B: -9.286%
- CN(C)c1ncnc2c1CCN(c1cc(C(F)(F)F)ncn1)CC2 | A: 18.45%; B: -13.21%
- CSc1nnc(CNC(=O)Nc2ccccc2Br)n1C | A: -1.476%; B: -11.19%
- Cc1ccc(C)c(OCC(=O)NC2CCN(c3ccccn3)CC2)c1 | A: 48.68%; B: -17.78%
- Cn1ncc2c(=O)[nH]c(CN3CCCC3CC(C)(C)C)nc21 (stereo unspecified) | A: 6.26%; B: 10.63%
- COc1ccc(NC(=O)NCC(C)N2CCc3ccccc32)cc1 (stereo unspecified) | A: 13.58%; B: -3.716%
- CC1CN(c2ncnc3c2cnn3C)CCN1c1nccs1 (stereo unspecified) | A: 11.25%; B: -7.275%
- [H][C@@]12C[C@H](C(=O)NCC(C)C)[C@@]([H])(CN(C(=O)Nc3ccc(F)cc3)C1)O2 | A: 14.03%; B: -9.919%
- CS(=O)(=O)N1CCN(C(=O)c2cc(-c3cccs3)cs2)CC1 | A: 8.031%; B: 8.984%
- [H][C@]12CN(C)C(=O)[C@@]1([H])CN(C(=O)C1CCOC1)C2 (stereo partly specified) | A: -26.96%; B: -21.12%
- CC(Cn1cccn1)NC(=O)CCC(=O)c1cccs1 (stereo unspecified) | A: -12.08%; B: -17.51%
- CCOc1ccnc(N2CCN(C(=O)c3ccc(C#N)cc3)CC2)n1 | A: -31.45%; B: -1.322%
- COCC1CN(C(=O)Cc2cccc(F)c2)Cc2ccnn2C1.O=C(O)C(F)(F)F (stereo unspecified) | A: -7.723%; B: 0.5214%
- COc1ccc2c(c1)CN(CC(=O)NC1CCCC1)CC2 | B: -5.211%
- CCOCC1CN(Cc2ccco2)Cc2ccnn2C1 (stereo unspecified) | A: 16.78%; B: -25.19%
- COCCNc1ccc(CC2CCNC2)cn1 (stereo unspecified) | A: 10.32%; B: 9.167%
- COc1ccc(NC(=O)c2cc3c([nH]c2=O)CCCC3=O)c(OC)c1 | A: 3.813%; B: 10.4%
- [H][C@@]12COC[C@@H](Cc3nc(C)no3)[C@]1([H])CN(S(C)(=O)=O)C2 | A: -20.38%; B: 11.54%
- [H][C@@]12C[C@H](C(=O)NCc3cccnc3)[C@@]([H])(CN(Cc3ccc(C)o3)C1)O2 | A: 25.23%; B: 1.876%
- CC(C)N1CCc2ncn(C(C)C)c2C1C(=O)N1CCN(C)CC1 (stereo unspecified) | A: -21.92%; B: -41.64%
- CC(C)CN1C(=O)C2(CCN(Cc3ccc(F)cc3)C2)c2ccccc21 (stereo unspecified) | B: 17.34%

Repeated from the top, 2 entries:

| compound | A | B |
|---|---|---|
| `CCN(CC)Cc1nc2c(o1)CN(C(=O)c1ccc3ncccc3c1)C2` | 29.31 | -13.75 |
| `Cc1cc(C)n(-c2ccc3nnc(C)n3n2)n1` | -17.21 | -25.33 |